For 33 molecules, AC50 results are on record in PubChem BioAssay AID1487 (National Center for Advancing Translational Sciences (NCATS), 2009).

This test can be described thus: qHTS Assay for Modulators of Lamin A Splicing. To be noted: HeLa LMNA splicing GFP/RFP minigene ratio, 48 h. In outline:
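Read-out is the ratio of GFP to DsRed2 object intensity, acquired by 488 nm laser-scanning cytometry on HeLa lamin A-EGFP minigene reporter cells. Compound incubation 48 hrs at 37 °C in Opti-MEM with 2% FBS; DMSO 0.5% final.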

Where [1] appears, read: measured here: RFP viability control channel.
[2] abbreviates: measured here: GFP splicing reporter channel.

Each structure is given as a SMILES string. The list shows a part of the results. The main result of the screen is listed elsewhere. These columns were measured beside it and carry no call. Compounds called inactive in the main read-out are mostly missing here. The note in brackets gives the kind of curve behind each potency; many fits are weak.

Turning to `CCn1ncc(Br)c1C(=O)Nc1cc(C)ccc1F`, under setting [1], the AC50 is 11.2 µM [falling, partial curve, poor fit].
For `O=C(Nc1nnc(S(=O)(=O)N2CCc3ccccc32)s1)c1cccc(Cl)c1`, the AC50 under setting [2] is 28.2 µM [falling, partial curve, poor fit] and the AC50 under setting [1] is 5.01 µM [falling, partial curve, poor fit].
On to `Cn1c(=O)n(C)c2cc(NS(=O)(=O)c3ccc(Cl)s3)ccc21`, for which the AC50 under setting [2] was 1.58 µM [falling, partial curve, poor fit].
Turning to `CN(Cc1ccccc1)S(=O)(=O)c1ccc(C(=O)Nc2nnc(C3CC3)o2)cc1`, the AC50 runs as follows: under setting [2], 2.82 µM [falling, full curve]; under setting [1], 17.8 µM [falling, single point].
As for `C=CCN(c1ccccc1OC)S(=O)(=O)c1cccc(C(=O)OCC(=O)c2c[nH]c3ccccc23)c1`, the AC50 under setting [1] is 22.4 µM [rising, partial curve].
In the case of `CSc1ccccc1NC(=O)COC(=O)c1ccccc1O`, the AC50 reads like this: under setting [2], 0.00316 µM [rising, full curve, poor fit]; under setting [1], 0.0112 µM [rising, full curve, poor fit].
In the case of `COc1ccc(NS(=O)(=O)c2cccc(NC(=O)NC3CCCCC3)c2)cc1`, the AC50 under setting [1] is 10 µM [rising, partial curve].
Still for that read-out and setting: in the case of `CN1C=CC=C/C1=C1\SC(=S)N(CC(=O)O)C1=O` it was 0.0282 µM [falling, full curve, poor fit].
With `C[N+]1(CCCOC(=O)C2(c3ccccc3)CCCC2)CCOCC1`, the AC50 under setting [2] was 22.4 µM [rising, single point].
As for `O=C(NCc1ccccc1)C1CC(=O)N(C2CCCCCC2)C1` (centres undefined), the AC50 reads like this: under setting [2], 0.00501 µM [falling, full curve, poor fit]; under setting [1], 0.00501 µM [falling, full curve].
For the molecule `O=C(NC1CCCCC1)C(c1ccc2ncccc2c1)N(Cc1ccc2c(c1)OCO2)C(=O)c1ccc2c(c1)OCCO2` (centres undefined), the AC50 under setting [1] was 12.6 µM [rising, partial curve].
With `NNC(=O)c1cc(O)c(O)c(O)c1`, the AC50 under setting [1] was 0.02 µM [falling, full curve, poor fit].
For `Cc1cc(NS(=O)(=O)c2ccc3oc(=O)c4ncn(C)c4c3c2)ccc1Br`, the AC50 is 35.5 µM [falling, partial curve, poor fit] under setting [2] and 35.5 µM [falling, single point] under setting [1].
Regarding `CC(=O)N1CCN(c2ccc(NC(=S)NC(=O)COc3ccc(C(C)(C)C)cc3)cc2)CC1`, the AC50 was 5.62 µM [rising, partial curve] under setting [2] and 12.6 µM [rising, partial curve] under setting [1].
For `C=C(C)COc1ccc(-c2nc(N)ncc2-c2ccc(OC)cc2)c(O)c1`, the AC50 under setting [2] is 12.6 µM [falling, partial curve] and the AC50 under setting [1] was 12.6 µM [falling, partial curve].
Turning to `Nc1c(C(=O)NCCN2CCOCC2)c2nc3ccccc3nc2n1-c1ccccc1`, under setting [1], the AC50 is 14.1 µM [rising, single point].
In the case of `CC1=NN(C(N)=S)C(=O)C1N=Nc1c(C)cc(C)cc1C` (centres undefined), the AC50 under setting [2] was 3.98 µM [falling, single point].
For `O=c1nc(Nc2cccc(Cl)c2)oc2cc(Cl)oc(=O)c12`, the AC50 under setting [1] was 3.16 µM [falling, full curve, poor fit].
As to `C=CCOC(=O)c1c(C)nc2cc3c(cc2c1C)OCO3`, the AC50 is, setting by setting: under setting [2], 25.1 µM [rising, single point]; under setting [1], 35.5 µM [rising, single point].
For `COc1c(Cl)cc(Cl)cc1CNc1ccc(S(N)(=O)=O)cc1`, the AC50 under setting [1] is 35.5 µM [falling, single point].
Take `CCCc1cc(-c2nc(N)ncc2-c2ccc3c(c2)OCCCO3)c(O)cc1OC`: the AC50 under setting [1] was 35.5 µM [rising, single point].
With `COc1ccc(S(=O)(=O)N2CCCN(S(=O)(=O)c3ccc(OC)c(C)c3)CC2)cc1C`, the AC50 under setting [2] was 35.5 µM [falling, single point] and the half-maximal activity concentration (AC50) under setting [1] was 12.6 µM [rising, partial curve].
On to `Cc1cc(/C=C2/SC(=S)N(c3ccc([N+](=O)[O-])cc3)C2=O)c(C)n1-c1cccnc1`, for which the AC50 under setting [1] is 1.26 µM [rising, full curve].
`O=[N+]([O-])c1ccc(Sc2cccc3cccnc23)cc1`: the AC50 reads like this: under setting [2], 12.6 µM [rising, single point]; under setting [1], 14.1 µM [rising, single point].
Consider `CCCCN(CC)c1nc(-c2ccccc2F)nc2ccccc12`, for which the AC50 under setting [1] was 14.1 µM [rising, single point].
With `O=C(COC(=O)CCSc1ccccc1)NCc1ccccc1Cl`, the AC50 reads like this: under setting [2], 0.0631 µM [falling, full curve, poor fit]; under setting [1], 0.0398 µM [falling, full curve, poor fit].
For `CCN(CC)C(=O)c1ccc(S(=O)(=O)N2CCC(c3nc4ccccc4s3)CC2)cc1`, under setting [1], the concentration at half-maximal activity (AC50) was 3.16 µM [rising, full curve].
With `Cc1ccc(S(=O)(=O)CC#CCOC(=O)c2ccc([N+](=O)[O-])cc2)cc1`, the concentration at half-maximal activity (AC50) was 35.5 µM [falling, single point] under setting [2] and 35.5 µM [falling, single point] under setting [1].
Consider `Cc1ccc(OCCn2cc(/C(N)=N/O)c3ccccc32)cc1C`, for which the AC50 was 14.1 µM [rising, partial curve, poor fit] under setting [2] and 15.8 µM [rising, partial curve] under setting [1].
Consider `CC1(c2ccccn2)Nc2ccccc2-c2nc3ccccc3n21` (centres undefined), for which, under setting [1], the AC50 is 14.1 µM [rising, single point].
With `Cc1nn(Cc2ccc(Cl)c(Cl)c2)c(C)c1NC(=O)c1sc2ccccc2c1Cl`, the AC50 is 12.6 µM [rising, partial curve, poor fit] under setting [2] and 11.2 µM [rising, partial curve, poor fit] under setting [1].
On to `COc1cc(C(=O)ON=C2C=C(C)C(=O)C(C)=C2)cc(OC)c1OC`, for which the AC50 is, setting by setting: under setting [2], 35.5 µM [falling, single point]; under setting [1], 35.5 µM [falling, single point].
For the molecule `Cc1nc2ccc(NC(=O)c3ccc(S(=O)(=O)N(C)c4ccccc4)cc3)cc2s1`, the AC50 is 1.41 µM [rising, full curve, poor fit] under setting [2] and 2 µM [rising, full curve] under setting [1].
